Source: the supplement of paper PMC10060354, “Discovery of a small molecule ligand of FRS2 that inhibits invasion and tumor growth” (Cellular Oncology, 2022)

Protein sequences, listed by entry. Tags and fused reporters are not part of them. Lines headed by an entry give the natural chain unless they say otherwise; changes in a name come on top.
UniProt Q86X95: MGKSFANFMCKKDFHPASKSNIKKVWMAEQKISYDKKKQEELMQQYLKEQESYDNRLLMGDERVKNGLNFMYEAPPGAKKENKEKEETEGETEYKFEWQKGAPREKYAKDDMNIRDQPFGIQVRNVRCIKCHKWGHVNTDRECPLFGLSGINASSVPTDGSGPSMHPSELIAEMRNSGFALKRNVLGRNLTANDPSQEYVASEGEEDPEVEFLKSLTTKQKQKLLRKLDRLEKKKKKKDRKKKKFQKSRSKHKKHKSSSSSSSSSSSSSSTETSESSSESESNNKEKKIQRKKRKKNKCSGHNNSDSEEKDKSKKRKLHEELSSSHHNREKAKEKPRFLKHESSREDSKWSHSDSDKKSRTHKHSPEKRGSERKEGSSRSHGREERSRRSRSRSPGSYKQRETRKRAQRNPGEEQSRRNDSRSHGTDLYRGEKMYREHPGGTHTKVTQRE
UniProt Q86VS8: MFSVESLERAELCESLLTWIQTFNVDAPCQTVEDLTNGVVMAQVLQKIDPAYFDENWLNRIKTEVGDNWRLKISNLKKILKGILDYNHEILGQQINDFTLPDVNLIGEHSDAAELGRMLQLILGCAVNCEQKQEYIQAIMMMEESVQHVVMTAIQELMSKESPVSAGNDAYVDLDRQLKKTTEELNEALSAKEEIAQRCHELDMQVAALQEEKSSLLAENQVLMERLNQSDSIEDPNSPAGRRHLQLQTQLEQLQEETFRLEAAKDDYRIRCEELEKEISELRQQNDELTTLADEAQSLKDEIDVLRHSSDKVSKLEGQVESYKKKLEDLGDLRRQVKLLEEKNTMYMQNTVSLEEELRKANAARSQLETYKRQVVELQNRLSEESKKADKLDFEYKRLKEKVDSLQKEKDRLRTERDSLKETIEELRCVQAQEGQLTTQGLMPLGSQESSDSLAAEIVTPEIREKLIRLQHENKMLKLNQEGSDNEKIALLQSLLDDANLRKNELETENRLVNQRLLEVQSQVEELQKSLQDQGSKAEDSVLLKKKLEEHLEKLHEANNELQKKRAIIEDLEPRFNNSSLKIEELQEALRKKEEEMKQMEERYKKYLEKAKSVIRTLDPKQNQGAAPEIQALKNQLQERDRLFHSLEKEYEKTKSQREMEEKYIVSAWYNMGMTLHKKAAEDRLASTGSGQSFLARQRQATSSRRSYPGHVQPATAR
UniProt O43920, whole entry: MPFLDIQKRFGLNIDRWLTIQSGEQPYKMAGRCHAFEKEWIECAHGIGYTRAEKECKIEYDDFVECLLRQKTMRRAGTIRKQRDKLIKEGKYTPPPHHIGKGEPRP
UniProt Q96DI7: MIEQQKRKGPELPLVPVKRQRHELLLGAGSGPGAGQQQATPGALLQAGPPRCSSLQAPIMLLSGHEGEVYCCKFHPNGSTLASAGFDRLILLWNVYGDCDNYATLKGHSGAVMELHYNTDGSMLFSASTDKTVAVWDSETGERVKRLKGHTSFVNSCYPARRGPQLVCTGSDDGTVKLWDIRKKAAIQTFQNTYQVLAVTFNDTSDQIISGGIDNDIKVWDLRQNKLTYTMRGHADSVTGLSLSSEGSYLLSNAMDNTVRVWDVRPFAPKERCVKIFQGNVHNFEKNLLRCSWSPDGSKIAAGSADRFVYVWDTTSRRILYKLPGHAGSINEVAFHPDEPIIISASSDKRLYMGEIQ
UniProt Q9Y2D4: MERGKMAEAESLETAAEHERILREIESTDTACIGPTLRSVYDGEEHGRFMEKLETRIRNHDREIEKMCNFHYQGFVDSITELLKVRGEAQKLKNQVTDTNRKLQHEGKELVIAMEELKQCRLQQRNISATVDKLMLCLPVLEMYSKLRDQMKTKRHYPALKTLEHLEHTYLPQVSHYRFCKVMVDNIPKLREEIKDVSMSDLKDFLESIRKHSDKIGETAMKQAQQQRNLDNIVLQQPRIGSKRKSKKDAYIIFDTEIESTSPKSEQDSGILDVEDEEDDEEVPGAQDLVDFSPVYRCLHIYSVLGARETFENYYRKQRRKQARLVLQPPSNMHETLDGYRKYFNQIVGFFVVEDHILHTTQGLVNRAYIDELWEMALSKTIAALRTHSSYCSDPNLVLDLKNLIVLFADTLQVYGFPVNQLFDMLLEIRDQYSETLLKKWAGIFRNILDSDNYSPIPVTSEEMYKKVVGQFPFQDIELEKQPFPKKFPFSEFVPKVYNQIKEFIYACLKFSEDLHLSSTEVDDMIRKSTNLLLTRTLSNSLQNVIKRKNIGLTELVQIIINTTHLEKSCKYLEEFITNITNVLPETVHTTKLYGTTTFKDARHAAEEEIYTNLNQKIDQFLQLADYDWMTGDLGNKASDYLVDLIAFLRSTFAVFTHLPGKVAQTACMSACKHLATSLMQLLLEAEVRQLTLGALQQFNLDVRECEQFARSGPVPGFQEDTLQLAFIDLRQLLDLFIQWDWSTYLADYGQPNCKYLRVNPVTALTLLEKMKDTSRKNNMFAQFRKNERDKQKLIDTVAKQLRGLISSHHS
UniProt P0CG22: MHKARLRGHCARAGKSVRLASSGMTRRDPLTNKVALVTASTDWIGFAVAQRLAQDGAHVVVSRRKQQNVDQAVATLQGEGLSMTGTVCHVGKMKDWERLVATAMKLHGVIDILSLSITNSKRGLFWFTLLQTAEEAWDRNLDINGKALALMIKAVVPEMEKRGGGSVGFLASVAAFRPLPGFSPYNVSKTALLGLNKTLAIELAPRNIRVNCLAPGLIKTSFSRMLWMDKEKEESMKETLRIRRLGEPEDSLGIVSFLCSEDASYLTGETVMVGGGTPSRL
UniProt Q9ULR3: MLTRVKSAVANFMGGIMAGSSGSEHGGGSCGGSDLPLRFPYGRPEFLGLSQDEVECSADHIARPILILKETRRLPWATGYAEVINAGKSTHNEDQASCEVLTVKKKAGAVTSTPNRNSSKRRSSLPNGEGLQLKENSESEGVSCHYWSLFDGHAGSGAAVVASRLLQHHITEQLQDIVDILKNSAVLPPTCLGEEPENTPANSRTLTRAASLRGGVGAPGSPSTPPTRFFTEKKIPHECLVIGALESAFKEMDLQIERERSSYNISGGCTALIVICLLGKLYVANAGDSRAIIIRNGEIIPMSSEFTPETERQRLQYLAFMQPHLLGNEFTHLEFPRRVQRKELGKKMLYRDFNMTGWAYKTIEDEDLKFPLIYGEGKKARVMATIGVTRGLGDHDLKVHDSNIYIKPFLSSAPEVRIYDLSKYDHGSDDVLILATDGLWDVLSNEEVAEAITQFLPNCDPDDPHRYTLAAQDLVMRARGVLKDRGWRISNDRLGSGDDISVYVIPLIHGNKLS
UniProt Q9BPW8: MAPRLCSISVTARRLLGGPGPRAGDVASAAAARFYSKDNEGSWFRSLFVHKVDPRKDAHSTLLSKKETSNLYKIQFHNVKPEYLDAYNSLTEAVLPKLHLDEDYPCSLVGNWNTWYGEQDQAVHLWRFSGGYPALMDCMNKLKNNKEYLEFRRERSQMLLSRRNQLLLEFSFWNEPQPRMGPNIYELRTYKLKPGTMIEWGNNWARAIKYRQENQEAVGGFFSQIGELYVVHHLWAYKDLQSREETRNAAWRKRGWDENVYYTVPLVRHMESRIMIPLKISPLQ
UniProt Q92696: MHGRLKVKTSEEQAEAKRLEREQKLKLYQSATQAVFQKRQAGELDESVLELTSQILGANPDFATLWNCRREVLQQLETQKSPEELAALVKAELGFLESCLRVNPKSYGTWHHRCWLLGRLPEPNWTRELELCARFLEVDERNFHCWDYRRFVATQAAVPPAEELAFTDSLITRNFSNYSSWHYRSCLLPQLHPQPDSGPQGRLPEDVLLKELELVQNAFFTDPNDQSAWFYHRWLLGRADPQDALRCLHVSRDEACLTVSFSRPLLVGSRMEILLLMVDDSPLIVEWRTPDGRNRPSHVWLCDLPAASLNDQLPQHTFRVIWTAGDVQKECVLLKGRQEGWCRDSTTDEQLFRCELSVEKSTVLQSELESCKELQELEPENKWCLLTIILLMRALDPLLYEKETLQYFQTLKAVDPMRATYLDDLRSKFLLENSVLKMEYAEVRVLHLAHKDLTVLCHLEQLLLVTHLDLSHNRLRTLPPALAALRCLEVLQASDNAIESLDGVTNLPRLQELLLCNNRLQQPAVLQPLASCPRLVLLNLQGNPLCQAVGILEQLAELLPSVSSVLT
UniProt Q6P4Q7: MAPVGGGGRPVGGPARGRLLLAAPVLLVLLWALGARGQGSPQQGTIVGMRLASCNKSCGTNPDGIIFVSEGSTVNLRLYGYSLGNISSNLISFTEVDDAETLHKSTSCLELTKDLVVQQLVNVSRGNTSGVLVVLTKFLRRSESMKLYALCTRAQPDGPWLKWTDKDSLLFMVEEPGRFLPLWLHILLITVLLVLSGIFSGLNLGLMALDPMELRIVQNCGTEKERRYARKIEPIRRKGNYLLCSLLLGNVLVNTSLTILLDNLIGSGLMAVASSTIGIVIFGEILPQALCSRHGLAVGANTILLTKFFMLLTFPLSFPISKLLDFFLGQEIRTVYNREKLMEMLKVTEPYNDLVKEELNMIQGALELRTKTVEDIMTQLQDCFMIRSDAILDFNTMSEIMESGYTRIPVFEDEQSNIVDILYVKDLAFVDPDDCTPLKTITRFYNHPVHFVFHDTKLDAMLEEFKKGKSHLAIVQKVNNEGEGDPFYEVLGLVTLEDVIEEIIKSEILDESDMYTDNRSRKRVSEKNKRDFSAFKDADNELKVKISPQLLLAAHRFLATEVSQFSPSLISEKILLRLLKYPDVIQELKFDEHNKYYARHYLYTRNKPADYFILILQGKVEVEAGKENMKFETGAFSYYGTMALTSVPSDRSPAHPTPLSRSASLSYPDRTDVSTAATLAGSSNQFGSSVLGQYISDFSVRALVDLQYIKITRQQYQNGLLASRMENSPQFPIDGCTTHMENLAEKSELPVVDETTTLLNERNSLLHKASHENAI
UniProt Q5JWF2, whole entry, looked up: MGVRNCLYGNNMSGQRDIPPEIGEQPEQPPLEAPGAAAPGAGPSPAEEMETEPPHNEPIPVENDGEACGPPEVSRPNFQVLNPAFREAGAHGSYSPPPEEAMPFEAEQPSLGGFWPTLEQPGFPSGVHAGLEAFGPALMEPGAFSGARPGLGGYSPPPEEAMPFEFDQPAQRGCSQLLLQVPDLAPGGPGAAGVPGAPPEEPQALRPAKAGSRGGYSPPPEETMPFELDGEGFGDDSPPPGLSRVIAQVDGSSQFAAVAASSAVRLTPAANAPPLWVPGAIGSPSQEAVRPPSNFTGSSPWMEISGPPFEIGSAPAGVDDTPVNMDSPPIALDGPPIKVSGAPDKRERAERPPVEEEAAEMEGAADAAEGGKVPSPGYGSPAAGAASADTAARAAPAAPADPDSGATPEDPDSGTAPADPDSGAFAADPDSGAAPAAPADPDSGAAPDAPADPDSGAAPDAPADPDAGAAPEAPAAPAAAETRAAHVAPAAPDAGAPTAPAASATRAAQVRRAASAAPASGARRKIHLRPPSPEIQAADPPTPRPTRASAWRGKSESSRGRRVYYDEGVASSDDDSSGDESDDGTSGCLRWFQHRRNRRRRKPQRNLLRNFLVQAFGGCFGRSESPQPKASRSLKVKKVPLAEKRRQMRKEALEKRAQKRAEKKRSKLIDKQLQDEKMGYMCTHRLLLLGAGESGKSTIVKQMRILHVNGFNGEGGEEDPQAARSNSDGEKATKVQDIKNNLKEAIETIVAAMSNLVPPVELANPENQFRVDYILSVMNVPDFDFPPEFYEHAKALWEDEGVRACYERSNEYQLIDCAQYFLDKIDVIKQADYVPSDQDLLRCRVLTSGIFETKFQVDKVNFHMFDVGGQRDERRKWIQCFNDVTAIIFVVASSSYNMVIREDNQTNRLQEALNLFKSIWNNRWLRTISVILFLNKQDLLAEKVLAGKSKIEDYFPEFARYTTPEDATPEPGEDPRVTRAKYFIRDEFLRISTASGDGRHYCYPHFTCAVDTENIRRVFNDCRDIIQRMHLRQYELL
UniProt P17813: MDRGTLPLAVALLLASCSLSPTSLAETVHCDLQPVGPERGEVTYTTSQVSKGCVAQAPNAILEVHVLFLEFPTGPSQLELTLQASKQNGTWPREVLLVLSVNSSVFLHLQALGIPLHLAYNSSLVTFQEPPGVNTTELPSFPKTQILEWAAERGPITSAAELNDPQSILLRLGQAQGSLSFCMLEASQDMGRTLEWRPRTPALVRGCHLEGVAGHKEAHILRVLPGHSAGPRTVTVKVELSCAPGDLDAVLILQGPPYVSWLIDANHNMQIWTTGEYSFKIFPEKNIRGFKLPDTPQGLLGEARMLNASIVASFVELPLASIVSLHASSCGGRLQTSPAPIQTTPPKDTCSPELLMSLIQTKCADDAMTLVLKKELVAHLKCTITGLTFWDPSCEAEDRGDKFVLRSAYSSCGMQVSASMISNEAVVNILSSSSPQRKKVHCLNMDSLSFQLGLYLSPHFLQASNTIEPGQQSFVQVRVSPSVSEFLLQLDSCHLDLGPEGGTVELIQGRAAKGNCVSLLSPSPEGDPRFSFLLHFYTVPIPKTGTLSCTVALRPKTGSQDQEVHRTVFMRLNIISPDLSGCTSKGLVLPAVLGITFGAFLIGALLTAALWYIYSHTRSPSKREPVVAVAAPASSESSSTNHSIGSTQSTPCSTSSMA

Compound: [O-][N+](C(C1=C(C(O)=C2)NC(C(C=C3)=CC=C3Cl)C4C1C=CC4)=C2Cl)=O
Test: melting temperature shift (compound 7 minus DMSO); higher = compound stabilises the protein
Conditions: 10 µM
Method: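 Thermal proteome profiling (TMT mass spectrometry) in intact DAOY medulloblastoma cells or DAOY lysates treated with 10 µM compound 7 or DMSO, heated at 10 temperatures from 40.5 to 73.8 °C for 3 min. Melting curves were fitted with the Bioconductor TPP package, and the melting point difference between compound and vehicle is reported per protein (single curve per condition).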

[1] = system: DAOY cell lysate, treatment time: 20 min, 4 °C
[2] = system: intact DAOY cells, treatment time: 90 min, 37 °C

| Target | melting temperature shift [1] | melting temperature shift [2] |
| --- | --- | --- |
| RALA (UniProt P11233) | 2.14 °C | 0.819 °C |
| IWS1 (UniProt Q96ST2) | -1.24 °C | -0.879 °C |
| UniProt P52895 | -0.143 °C | – |
| CCT7 (UniProt Q99832) | -0.439 °C | -0.137 °C |
| TOPBP1 (UniProt Q92547) | 0.25 °C | – |
| MYO1E (UniProt Q12965) | -0.929 °C | -0.901 °C |
| ATXN2 (UniProt Q99700) | -0.716 °C | -0.165 °C |
| UniProt P06493 | -0.135 °C | -0.182 °C |
| UBFD1 (UniProt O14562) | -0.749 °C | -0.0202 °C |
| UniProt Q86X95 | 7.25 °C | – |
| UniProt Q9H0C2 | – | -0.259 °C |
| UniProt Q969J3 | -0.35 °C | – |
| SLC3A2 (UniProt P08195) | 1.94 °C | -0.0515 °C |
| UniProt Q8NAM6 | – | 1.86 °C |
| KBTBD4 (UniProt Q9NVX7) | -0.938 °C | – |
| MIPEP (UniProt Q99797) | 1.17 °C | -0.493 °C |
| GPN2 (UniProt Q9H9Y4) | -0.607 °C | – |
| PLXNB2 (UniProt O15031) | 0.961 °C | -0.00288 °C |
| UniProt Q9UL45 | -0.906 °C | – |
| GNPDA2 (UniProt Q8TDQ7) | -1.11 °C | 3.07 °C |
| OSBPL8 (UniProt Q9BZF1) | 1.87 °C | -0.663 °C |
| MRPL49 (UniProt Q13405) | 1.45 °C | -0.898 °C |
| UniProt Q93079 | – | 0.352 °C |
| HOOK3 (UniProt Q86VS8) | -0.745 °C | -0.82 °C |

| Target | melting temperature shift [1] | melting temperature shift [2] |
| --- | --- | --- |
| NDUFS5 (UniProt O43920) | -0.569 °C | – |
| UniProt Q8WWF6 | – | -0.5 °C |
| CWC15 (UniProt Q9P013) | -4.86 °C | – |
| SNRNP40 (UniProt Q96DI7) | -0.00863 °C | 1.49 °C |
| PPIL3 (UniProt Q9H2H8) | -0.216 °C | 0.362 °C |
| EXOC6B (UniProt Q9Y2D4) | -1.66 °C | -0.448 °C |
| ALYREF (UniProt Q86V81) | 1.23 °C | -1.15 °C |
| NUP54 (UniProt Q7Z3B4) | -0.569 °C | 1.29 °C |
| SARS2 (UniProt Q9NP81) | -0.333 °C | -0.814 °C |
| OTUB1 (UniProt Q96FW1) | -0.751 °C | -0.0029 °C |
| UniProt Q6KB66 | -0.0778 °C | 8.84 °C |
| UniProt Q13761 | – | -1.53 °C |
| HAUS8 (UniProt Q9BT25) | 0.551 °C | -1.2 °C |
| SLC9A3R1 (UniProt O14745) | -0.535 °C | – |
| ADAT3 (UniProt Q96EY9) | 0.632 °C | – |
| COG3 (UniProt Q96JB2) | -0.187 °C | -0.337 °C |
| CHSY1 (UniProt Q86X52) | 2.91 °C | – |
| LSM14B (UniProt Q9BX40) | 0.555 °C | -0.3 °C |
| ACOT8 (UniProt O14734) | 1.96 °C | 0.13 °C |
| PLIN3 (UniProt O60664) | -3.34 °C | – |
| KPNA3 (UniProt O00505) | -0.275 °C | 0.146 °C |
| ITPRIP (UniProt Q8IWB1) | 1.87 °C | – |
| HOMER1 (UniProt Q86YM7) | -0.277 °C | -0.0465 °C |
| ABCB10 (UniProt Q9NRK6) | -0.0272 °C | -0.958 °C |

| Target | melting temperature shift [1] | melting temperature shift [2] |
| --- | --- | --- |
| RAC1 (UniProt P63000) | 0.414 °C | 0.205 °C |
| STEAP3 (UniProt Q658P3) | 1.8 °C | -0.373 °C |
| MAPK14 (UniProt Q16539) | -0.685 °C | -1.01 °C |
| UniProt O14746 | – | -0.229 °C |
| VPS13C (UniProt Q709C8) | -0.782 °C | -0.48 °C |
| UniProt Q9NSY0 | – | 1.52 °C |
| UniProt P23443 | -0.801 °C | – |
| VPS36 (UniProt Q86VN1) | -0.52 °C | 0.31 °C |
| UniProt Q8TE49 | – | 2.89 °C |
| UniProt P34741 | 1.5 °C | – |
| UniProt P0CG22 | – | -0.278 °C |
| UniProt Q8IX95 | – | 0.161 °C |
| UBAP2 (UniProt Q5T6F2) | 2.64 °C | – |
| LRPAP1 (UniProt P30533) | -1.14 °C | – |
| PPM1H (UniProt Q9ULR3) | – | -0.13 °C |
| STAT6 (UniProt P42226) | -0.346 °C | -0.511 °C |
| CRABP2 (UniProt P29373) | -0.902 °C | 1.01 °C |
| UniProt Q6A1A2 | – | -1.18 °C |
| TRAPPC12 (UniProt Q8WVT3) | -2.37 °C | -0.617 °C |
| UniProt Q06413 | 0.275 °C | – |
| WDR55 (UniProt Q9H6Y2) | -1.68 °C | -1.74 °C |
| MPHOSPH10 (UniProt O00566) | – | 2.14 °C |
| PMPCA (UniProt Q10713) | 1.06 °C | -0.108 °C |
| SF3B6 (UniProt Q9Y3B4) | 0.0469 °C | 0.36 °C |

| Target | melting temperature shift [1] | melting temperature shift [2] |
| --- | --- | --- |
| UniProt Q8WYP5 | 2.26 °C | 0.878 °C |
| FARSB (UniProt Q9NSD9) | 0.114 °C | -0.691 °C |
| RANGAP1 (UniProt P46060) | -0.286 °C | -0.378 °C |
| C17ORF75 (UniProt Q9HAS0) | -0.67 °C | -0.263 °C |
| SUB1 (UniProt P53999) | -0.533 °C | 0.401 °C |
| PIGG (UniProt Q5H8A4) | 0.44 °C | -0.747 °C |
| CFL2 (UniProt Q9Y281) | -0.697 °C | 2.28 °C |
| NDUFAF7 (UniProt Q7L592) | – | -2.35 °C |
| NDUFB5 (UniProt O43674) | 1.26 °C | -0.624 °C |
| NIPSNAP1 (UniProt Q9BPW8) | -0.582 °C | 0.581 °C |
| UniProt Q8NFD5 | -0.532 °C | 0.228 °C |
| UniProt P17900 | -0.911 °C | – |
| DOCK1 (UniProt Q14185) | -2.09 °C | – |
| GPX4 (UniProt P36969) | -1.57 °C | 1.2 °C |
| UniProt P50281 | 1.85 °C | 0.267 °C |
| RABGGTA (UniProt Q92696) | -0.349 °C | 0.357 °C |
| RIC8A (UniProt Q9NPQ8) | -0.193 °C | -0.721 °C |
| CNNM4 (UniProt Q6P4Q7) | – | 1.56 °C |
| SPTLC1 (UniProt O15269) | 0.0409 °C | 0.26 °C |
| RAB14 (UniProt P61106) | 0.868 °C | -0.281 °C |
| TRAPPC5 (UniProt Q8IUR0) | -1.28 °C | 0.739 °C |
| HEBP1 (UniProt Q9NRV9) | -1.28 °C | 1.36 °C |
| SFPQ (UniProt P23246) | 1.03 °C | -0.0248 °C |
| UniProt O15254 | – | 1.24 °C |

28 entries from above, bar-delimited.
Target | melting temperature shift [1] | melting temperature shift [2]
SLC3A2 (UniProt P08195) | 1.94 °C | -0.0515 °C
UniProt Q8NAM6 | – | 1.86 °C
KBTBD4 (UniProt Q9NVX7) | -0.938 °C | –
MIPEP (UniProt Q99797) | 1.17 °C | -0.493 °C
GPN2 (UniProt Q9H9Y4) | -0.607 °C | –
PLXNB2 (UniProt O15031) | 0.961 °C | -0.00288 °C
UniProt Q9UL45 | -0.906 °C | –
GNPDA2 (UniProt Q8TDQ7) | -1.11 °C | 3.07 °C
OSBPL8 (UniProt Q9BZF1) | 1.87 °C | -0.663 °C
MRPL49 (UniProt Q13405) | 1.45 °C | -0.898 °C
UniProt Q93079 | – | 0.352 °C
HOOK3 (UniProt Q86VS8) | -0.745 °C | -0.82 °C
NDUFS5 (UniProt O43920) | -0.569 °C | –
UniProt Q8WWF6 | – | -0.5 °C
CWC15 (UniProt Q9P013) | -4.86 °C | –
SNRNP40 (UniProt Q96DI7) | -0.00863 °C | 1.49 °C
PPIL3 (UniProt Q9H2H8) | -0.216 °C | 0.362 °C
EXOC6B (UniProt Q9Y2D4) | -1.66 °C | -0.448 °C
ALYREF (UniProt Q86V81) | 1.23 °C | -1.15 °C
NUP54 (UniProt Q7Z3B4) | -0.569 °C | 1.29 °C
SARS2 (UniProt Q9NP81) | -0.333 °C | -0.814 °C
OTUB1 (UniProt Q96FW1) | -0.751 °C | -0.0029 °C
UniProt Q6KB66 | -0.0778 °C | 8.84 °C
UniProt Q13761 | – | -1.53 °C
HAUS8 (UniProt Q9BT25) | 0.551 °C | -1.2 °C
SLC9A3R1 (UniProt O14745) | -0.535 °C | –
ADAT3 (UniProt Q96EY9) | 0.632 °C | –
COG3 (UniProt Q96JB2) | -0.187 °C | -0.337 °C

Next entries follow:

| Target | melting temperature shift [1] | melting temperature shift [2] |
| --- | --- | --- |
| UBE2H (UniProt P62256) | -0.0694 °C | 0.431 °C |
| USP36 (UniProt Q9P275) | 0.197 °C | – |
| NUP98 (UniProt P52948) | -0.355 °C | 0.731 °C |
| SLC25A15 (UniProt Q9Y619) | 2.6 °C | -1.81 °C |
| ZZEF1 (UniProt O43149) | 1.14 °C | -0.436 °C |
| MRPL30 (UniProt Q8TCC3) | 0.977 °C | 0.258 °C |
| KPNA4 (UniProt O00629) | -0.688 °C | 1.7 °C |
| UniProt Q71UM5 | – | -1.49 °C |
| UniProt Q5JWF2 | – | -0.542 °C |
| SLC12A6 (UniProt Q9UHW9) | – | -0.404 °C |
| UniProt Q9HB65 | – | -0.427 °C |
| SEC13 (UniProt P55735) | 0.506 °C | 0.112 °C |
| COMMD1 (UniProt Q8N668) | 0.231 °C | -0.109 °C |
| FOSL2 (UniProt P15408) | 2.21 °C | – |
| RFT1 (UniProt Q96AA3) | 4.98 °C | -2.28 °C |
| NUP133 (UniProt Q8WUM0) | 0.16 °C | -0.212 °C |
| CKS2 (UniProt P33552) | 0.262 °C | -0.0912 °C |
| ENG (UniProt P17813) | -0.691 °C | -0.284 °C |
| FUCA2 (UniProt Q9BTY2) | 0.12 °C | -0.0275 °C |
| UniProt Q9NW81 | 3.03 °C | -0.564 °C |

Repeats are few or missing, and single values can be far off.
